Reference: patent publication US20130225510A1, “METHODS FOR THE USE OF BRANCHED CHAIN AMINO ACIDS” (Nestec S.A., priority 2005, published 2013)
Peptide text beside a SMILES is read from it.

Assay: taste test of bitterness, equal molar concentrations of dipeptide and free BCAA
Conditions: for bitterness compared with the free branched chain amino acid: equal molar concentrations
[1] = tasted after being added to a standard vanilla oral nutritional supplement
[2] = tasted after being dissolved in water

Row | Compound | bitterness compared with the free branched chain amino acid [1] | bitterness compared with the free branched chain amino acid [2] | bitterness compared with RESOURCE Support (dissolved dipeptide vs nutritional product with approximately 3.2 g free leucine per 8 oz. serving)
1 | CC[C@H](C)[C@H](NC(=O)[C@H](C)N)C(=O)O [alanyl-isoleucine] (H-Ala-Ile-OH) | less bitterness than the free BCAA | less bitterness than the free BCAA | –
2 | CC(C)C[C@H](NC(=O)[C@H](C)N)C(=O)O [alanyl-leucine] (H-Ala-Leu-OH) | less bitterness than free leucine | less bitterness than free leucine | less bitterness than RESOURCE® Support®
3 | CC(C)[C@H](NC(=O)[C@H](C)N)C(=O)O [alanyl-valine] (H-Ala-Val-OH) | less bitterness than the free BCAA | less bitterness than the free BCAA | –
